Reference: PMC12340787
No constants are given. Whether binding was seen depends on the method and setting. Binding seen in cells or lysates may run through a third protein. Here binding means that the protein was enriched with, or labelled near, the bait; the list need not be complete.

Target: Drosophila PH4αEFB (Drosophila melanogaster (endogenous in D17 cells))
Test: affinity purification with mass spectrometry; both proteins endogenous in D17 lysate and recovered together on gelatine Sepharose 4B after a 1 M NaCl wash; gel bands identified by protein ID LC-MS

binding: binds
B1: Drosophila protein disulfide isomerase (enzyme, UniProt P54399 19-496)
chain: AEAEVKVEEGVLVATVDNFKQLIADNEFVLVEFYAPWCGHCKALAPEYAKAAQQLAEKESPIKLAKVDATVEGELAEQYAVRGYPTLKFFRSGSPVEYSGGRQAADIIAWVTKKTGPPAKDLTSVADAEQFLKDNEIAIIGFFKDLESEEAKTFTKVANALDSFVFGVSSNADVIAKYEAKDNGVVLFKPFDDKKSVFEGELNEENLKKFAQVQSLPLIVDFNHESASKIFGGSIKSHLLFFVSREGGHIEKYVDPLKEIAKKYRDDILFVTISSDEEDHTRIFEFFGMNKEEVPTIRLIKLEEDMAKYKPESDDLSAETIEAFLKKFLDGKLKQHLLSQELPEDWDKNPVKVLVSSNFESVALDKSKSVLVEFYAPWCGHCKQLAPIYDQLAEKYKDNEDIVIAKMDSTANELESIKISSFPTIKYFRKEDNKVIDFNLDRTLDDFVKFLDANGEVADSEPVEETEEEEEAPKKDEL
